# Primary screen of a compound library

Measurements from “University of Dundee, Small-Polar-MMV Screening Library” (2021), ChEMBL document CHEMBL3988442.

Mtb cholesterol medium: 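Phenotypic screen: M. tuberculosis growth, cholesterol and DPPC medium, 4 days; the read-out is not stated. Concentration: 50 µM. Higher reads as more growth inhibition (inferred: compounds with an IC50 in retests scored well above the rest). Size under these conditions: about 69,000 compounds, about 370 of them at 50% or above in at least one test.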
Mtb glucose medium: 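Growth of Mycobacterium tuberculosis over 3 days (7H9 medium with glucose and tyloxapol); the read-out is not stated. Tested at 50 µM. The record gives no direction; compounds that gave an IC50 in retests scored well above the rest, so higher reads as more growth inhibition. About 69,000 compounds were tested under these conditions; 1.1% (about 760) showed 50% or more at least once.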

Values are the deposited “Percent Effect”, in %. The record does not define 0% and 100%; most values in the screen are far below 50% and negative numbers occur (in some assays of this library far below -100). Compounds were drawn at random from those tested, without regard to their results. Two or more numbers in one place are separate tests of the same structure; such repeats can differ widely.

O=C(Cc1ccc(F)cc1)NCCNS(=O)(=O)C1CCCC1 read Mtb cholesterol medium: -14%; Mtb glucose medium: 6.49%. Cc1ccc(NC(=O)N(C)Cc2cnn(C)c2)cc1OCC(F)F read Mtb cholesterol medium: -4.582%; Mtb glucose medium: 46.37%. For CN(C)S(=O)(=O)N1CCN(c2ccnc(N3CCCCC3)n2)CC1 the result was Mtb cholesterol medium: 0.7634%; Mtb glucose medium: 6.242% & 5.903%. For Fc1cccc(N2CCCC3(CN(Cc4nccs4)CCO3)C2)c1.O=C(O)C(F)(F)F.O=C(O)C(F)(F)F (centres unmarked) the result was Mtb cholesterol medium: -7.255% & -4.787%; Mtb glucose medium: 11.02%. Result for [H][C@@]12CCCO[C@]1([H])[C@H](NC(=O)C1CC1)CN2Cc1cccs1 was Mtb cholesterol medium: -20.92%; Mtb glucose medium: -23.27%. Cc1nc(C)n(CC2CCCCN2CC(=O)Nc2cccnc2)n1 (centres unmarked) read Mtb cholesterol medium: -9.476%; Mtb glucose medium: -3.748% & 7.22%.

With O=C(O)C(F)(F)F.O=C(O)C(F)(F)F.O=C(O)C(F)(F)F.[H][C@@]12CN(Cc3ccncc3)C[C@]1([H])[C@@H](OC)CCN2Cc1cnn(C)c1 the screen gave Mtb cholesterol medium: -12.48%; Mtb glucose medium: 0.9023%. For COCC1CN(C(=O)[C@H]2CCCO2)Cc2nnn(CC3CC3)c21 (some centres unmarked) the result was Mtb cholesterol medium: 1.803%; Mtb glucose medium: -11.53% & -8.434%. For [H][C@]12C[C@H](C(=O)NCC3CC3)N(C)[C@@]1([H])CN(Cc1ccc(C)o1)C2 the result was Mtb cholesterol medium: -8.414% & -2.158%; Mtb glucose medium: 8.204%. Result for N#Cc1cc(C#N)c(SCCC(=O)Nc2ccc(F)cc2)nc1N was Mtb cholesterol medium: -8.163%; Mtb glucose medium: 7.467%. Result for CCN(CCSc1ccccc1)C(=O)c1cn([C@H]2CC[C@@H](N)CC2)nn1 was Mtb cholesterol medium: 25.53%; Mtb glucose medium: 11.8%. CSCCCN1C[C@H](NC(=O)c2ccc(CO)cc2)[C@@H](C2CC2)C1 gave Mtb cholesterol medium: 6.388%; Mtb glucose medium: 19.68%.

For c1coc(-c2noc(CN3CC(n4cccn4)C3)n2)c1 the result was Mtb cholesterol medium: -10.27%; Mtb glucose medium: 1.206%. COc1ccc(C2(NC(=O)c3ccc(=O)n(C)n3)CCCC2)cc1 read Mtb cholesterol medium: 13.85%; Mtb glucose medium: -5.512% & 2.647%. [H][C@@]12CCN(C(=O)c3cccnc3OC)C[C@@]1([H])O[C@H](C)C2 gave Mtb cholesterol medium: 1.025%; Mtb glucose medium: 13.35%. With CN(Cc1nnc(C2CC2)n1C)S(=O)(=O)Cc1ccccc1F the screen gave Mtb cholesterol medium: -10.94%; Mtb glucose medium: -4.541%. For CN(CCCNc1cc(N2CCCC2CO)ncn1)S(C)(=O)=O (centres unmarked) the result was Mtb cholesterol medium: -19.29%; Mtb glucose medium: -7.947% & -18.63%. For Cc1cccc(CN2CCn3cc(Cn4cccn4)nc3C2)n1.O=C(O)C(F)(F)F.O=C(O)C(F)(F)F.O=C(O)C(F)(F)F the result was Mtb cholesterol medium: 7.682%; Mtb glucose medium: 25.52%.

[H][C@@]12OCCN(C(=O)C3CCOCC3)[C@@]1([H])CC[C@H]2OCC read Mtb cholesterol medium: 2.718% & -3.112%; Mtb glucose medium: 14.8%. For CCC(O)CN1CCN(C(=O)c2ccn(C)c(=O)c2)CC1 (centres unmarked) the result was Mtb cholesterol medium: -29.08%; Mtb glucose medium: -10.83%. O=C(Cc1csc(-c2ncccn2)n1)N1CCN2CCCCC2C1 (centres unmarked) read Mtb cholesterol medium: -17.25%; Mtb glucose medium: 12.65% & 10.02%. With CC(C)n1ccnc1CNC(=O)c1cccc(CCC(C)(C)O)c1 the screen gave Mtb cholesterol medium: -14.34%; Mtb glucose medium: -1.686% & -4.752%. CCN(Cc1noc(C2CC2)n1)Cc1ccc(C#N)cc1F gave Mtb cholesterol medium: 27.08%; Mtb glucose medium: 31.25%. CS(=O)(=O)c1ccc(C(=O)N2CCCC(n3ccnc3)C2)cc1 (centres unmarked) gave Mtb cholesterol medium: -4.79%; Mtb glucose medium: -0.5427% & 14.2%.

CCc1ncc(CN2CCOC(Cc3cccc(F)c3)C2)cn1 (centres unmarked) read Mtb cholesterol medium: 44.17%; Mtb glucose medium: 42.75%. Result for Cn1ccnc1CN1CCC2(CC1)CN(c1ccccc1)C(=O)CO2.O=C(O)C(F)(F)F was Mtb cholesterol medium: -19.11% & -1.703%; Mtb glucose medium: -6.9% & -12.57%. CCS(=O)(=O)N1CCc2ccc(NC(=O)Nc3cccc(C)c3)cc21 read Mtb cholesterol medium: 19.19%; Mtb glucose medium: 11.13%. For CCC(Nc1nc(C)nc2onc(C)c12)c1cccs1 (centres unmarked) the result was Mtb cholesterol medium: 23.81%; Mtb glucose medium: 14.67% & 10.46%. With CCC(O)CN1CCN(C(=O)Cc2cc(C)ccc2OC)CC1 (centres unmarked) the screen gave Mtb cholesterol medium: -22.16%; Mtb glucose medium: -24.85%. CSCCC(NC(N)=O)C(=O)NCc1ccc(-n2cccn2)cc1 (centres unmarked) read Mtb cholesterol medium: -11.6%; Mtb glucose medium: -4.908% & -5.756%.

Cc1ccc(-c2nnc(CN3CCOC(Cn4cncn4)C3)o2)cc1 (centres unmarked) gave Mtb cholesterol medium: -0.116%; Mtb glucose medium: 0.6566%. CCN(c1ccc(C(=O)N2CCCC(C)C2)cc1)S(=O)(=O)CC (centres unmarked) gave Mtb cholesterol medium: -12.8%; Mtb glucose medium: -13.81% & -7.198%. CS(=O)(=O)N1CC2(CCN(C3CCCCC3)C2)Cc2ccccc21 (centres unmarked) read Mtb cholesterol medium: -20.6%; Mtb glucose medium: 25.93%.

Some entries from above, unchanged:

compound,Mtb cholesterol medium,Mtb glucose medium
N#Cc1cc(C#N)c(SCCC(=O)Nc2ccc(F)cc2)nc1N,-8.163,7.467
CN(C)S(=O)(=O)N1CCN(c2ccnc(N3CCCCC3)n2)CC1,0.7634,6.242 & 5.903
CCC(O)CN1CCN(C(=O)Cc2cc(C)ccc2OC)CC1 (centres unmarked),-22.16,-24.85